{"sequences": {"note": "The chains behind the UniProt entries cited, without tags or fusion partners.", "UniProt P18054, whole entry, looked up": "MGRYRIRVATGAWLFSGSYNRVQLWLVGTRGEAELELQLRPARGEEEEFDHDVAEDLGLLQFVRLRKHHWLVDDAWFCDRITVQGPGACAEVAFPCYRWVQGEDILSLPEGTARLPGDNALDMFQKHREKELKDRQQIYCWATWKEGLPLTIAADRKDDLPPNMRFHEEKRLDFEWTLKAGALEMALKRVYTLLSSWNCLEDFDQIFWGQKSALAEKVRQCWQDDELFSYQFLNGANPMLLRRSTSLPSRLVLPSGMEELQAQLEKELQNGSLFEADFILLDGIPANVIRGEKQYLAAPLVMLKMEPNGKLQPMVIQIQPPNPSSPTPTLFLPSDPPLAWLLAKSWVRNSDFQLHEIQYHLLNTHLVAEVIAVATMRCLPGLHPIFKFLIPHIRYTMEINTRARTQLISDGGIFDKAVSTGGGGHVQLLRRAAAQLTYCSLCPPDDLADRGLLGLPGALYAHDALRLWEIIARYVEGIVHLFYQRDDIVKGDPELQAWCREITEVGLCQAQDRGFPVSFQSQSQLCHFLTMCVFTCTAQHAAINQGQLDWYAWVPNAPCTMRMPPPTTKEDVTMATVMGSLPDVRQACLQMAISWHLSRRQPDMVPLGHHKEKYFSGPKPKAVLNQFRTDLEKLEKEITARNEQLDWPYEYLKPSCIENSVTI"}, "source": "PubChem BioAssay AID1671190", "about": "(National Center for Advancing Translational Sciences (NCATS), 2021)", "note": "About 6,100 (1.1%) of roughly 580,000 compounds were called active. Inconclusive results, whose numbers are uncertain, are shown with a selection of clear calls. Calls follow the shape of the dose curve; as a rule, active = well fitted inhibition curve with a large enough effect; inconclusive = small, poorly fitted or top-dose-only effect, or another doubt; inactive = no such curve, though single readings can be large or run the other way. A potency beside an inconclusive call is a rough fit, not a confirmed value. % is scaled to controls: 0 for no effect and ±100 for the full control effect; potency is read from the fitted curve at half-maximal effect.", "data": [{"target": "Polyunsaturated fatty acid lipoxygenase ALOX12 (Homo sapiens) (UniProt P18054)", "test": "Primary qHTS assay for inhibitors of human arachidonate 12S-lipoxygenase (ALOX12): Round 2", "conditions": "purified 12hLO, xylenol orange hydroperoxide absorbance; activity change, negative = inhibition: at 108 µM (top of the series) unless noted", "procedure,_shortened": "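Purified human 12hLO (150 nM final) in 25 mM Hepes, 0.01% Triton X-100, pH 7.0 was preincubated 15 min at room temperature with compound. Then 40 uM arachidonic acid was added, 30 min. Hydroperoxide was read by Fe-XO absorbance ratio 573/405 nm.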", "values": [{"smiles": "O[C@@H]1C[C@@H](c2nc(-c3ccc4c(c3)OCO4)no2)N(Cc2ccc(-c3ccccn3)cc2)C1", "Potency": "inconclusive: 44.7 µM [inhibitor, partial curve]"}, {"smiles": "C[C@@H](O)[C@H](Nc1ncnc2sc3c(c12)CCCC3)C(=O)O", "activity change, negative = inhibition": "inactive: -15.2%"}, {"smiles": "Cc1ccc2ccccc2c1C(O)c1ncc(-c2cccc(F)c2)[nH]1", "note": "(stereo unspecified)", "Potency": "inconclusive: 39.8 µM [inhibitor, partial curve, poor fit]"}, {"smiles": "Cc1ccc(/C=C/C(=O)Nc2nnc(SCc3ccc(C#N)cc3)s2)o1", "activity change, negative = inhibition": "inactive: -19%"}, {"smiles": "O=C1CCN(C(=O)c2cccs2)CCCC(c2nc(-c3cccnc3)no2)CCN1", "note": "(stereo unspecified)", "activity change, negative = inhibition": "inactive: 8.17%"}, {"smiles": "CC(C)NC(=O)c1ccccc1CSc1nc2ccccc2o1", "activity change, negative = inhibition": "inactive: -26.1%"}, {"smiles": "Cn1nc(NC(=O)Cc2c[nH]c(=O)[nH]c2=O)c2c(N3CCOCC3)cccc21", "activity change, negative = inhibition": "inactive: -7.08%"}, {"smiles": "O=C(Cc1c[nH]c2ccccc12)OCc1ccccc1Cl", "Potency": "inconclusive: 70.8 µM [inhibitor, partial curve, poor fit]"}, {"smiles": "c1ccc2oc(Oc3ccc(C4SCCS4)cc3)nc2c1", "Potency": "inconclusive: 35.5 µM [inhibitor, partial curve, poor fit]"}, {"smiles": "N#Cc1ccc(Nc2nc(CN3CCOCC3)nc3sc4c(c23)CCCC4)cc1", "Potency": "inconclusive: 4.47 µM [inhibitor, single point]"}, {"smiles": "O=C1C(=O)N(CCS(=O)(=O)c2ccccc2)c2ccc(Cl)cc21", "Potency": "inconclusive: 7.08 µM [inhibitor, full curve]"}, {"smiles": "O=C1NCCOCCCN(S(=O)(=O)c2ccc3c(c2)OCCO3)[C@H]2CCC[C@@H]12", "activity change, negative = inhibition": "inactive: 18.3%"}, {"smiles": "NC(=O)c1c(NC(=O)c2ccccc2)sc2c1CCC2", "Potency": "inconclusive: 79.4 µM [inhibitor, partial curve, poor fit]"}, {"smiles": "CC(On1nnc2ccc(Cl)cc21)C(=O)Nc1ccc(F)cc1F", "note": "(stereo unspecified)", "Potency": "inconclusive: 126 µM [inhibitor, single point]"}, {"smiles": "CCCCCOc1ccc(C(C)(O)C(CN2CCOCC2)c2ccccc2)cc1", "note": "(stereo unspecified)", "activity change, negative = inhibition": "inconclusive: -42.9% [inhibitor]"}, {"smiles": "CCOC(=O)C1=C(CSc2nc3c(cc2C#N)CCC3)OC(N)=C(C#N)C1c1ccccc1", "note": "(stereo unspecified)", "Potency": "inconclusive: 35.5 µM [inhibitor, partial curve, poor fit]"}, {"smiles": "Cc1c(NC(=S)NC(=O)c2cc3ccccc3o2)cccc1C(=O)O", "Potency": "inconclusive: 11.2 µM [inhibitor, full curve, poor fit]"}, {"smiles": "COc1ccc(-c2ncncc2-c2csc(C)n2)c(O)c1OC", "Potency": "inconclusive: 35.5 µM [inhibitor, partial curve, poor fit]"}, {"smiles": "Cc1cccc(CN2CCN(C(=O)c3cc(C4CC4)nn3-c3ccccc3)CC2)c1", "Potency": "inconclusive: 126 µM [inhibitor, single point]"}, {"smiles": "O=C(COC(=O)c1nc(Cl)ccc1Cl)Nc1ccc(Cl)cc1", "Potency": "inconclusive: 112 µM [inhibitor, single point]"}, {"smiles": "COCC1(CNC(=O)c2nc3ccccc3[nH]2)C[C@@H](O)[C@@H](O)C1", "note": "(stereo partly specified)", "Potency": "inconclusive: 20 µM [inhibitor, full curve, poor fit]"}, {"smiles": "CCc1ccc(NC(=O)CN2C(=O)C3(SCC(=O)N3c3ccccc3)c3ccccc32)cc1", "note": "(stereo unspecified)", "Potency": "inconclusive: 89.1 µM [inhibitor, partial curve, poor fit]"}, {"smiles": "COc1cc(C(=O)NC(C)c2ccc3ccccc3c2)cc(Cl)c1O", "note": "(stereo unspecified)", "Potency": "inconclusive: 50.1 µM [inhibitor, partial curve, poor fit]"}, {"smiles": "CCn1nc(C)c(NC(=O)c2ccc(Cl)cc2)c1C", "Potency": "inconclusive: 31.6 µM [inhibitor, partial curve, poor fit]"}, {"smiles": "O=C(c1ccc(Cl)cc1)N1CCC(N2CCCS2(=O)=O)CC1", "activity change, negative = inhibition": "inactive: 5.13% [at 6.33 µM]"}, {"smiles": "COc1ccc(N2CCN(C(=O)c3ccc4c(c3)[nH]c(=S)n3c5ccccc5nc43)CC2)cc1", "activity change, negative = inhibition": "inactive: 9.94%"}, {"smiles": "Clc1ccc(-c2cn[nH]c2)cc1", "activity change, negative = inhibition": "inactive: -13.1%"}, {"smiles": "CC1(C(=O)Nc2cccc3c2CCCC3)CCN1C(=O)CCc1ccc(Cl)cc1Cl", "note": "(stereo unspecified)", "Potency": "inconclusive: 70.8 µM [inhibitor, single point]"}, {"smiles": "Oc1ccc(Br)cc1CNc1ccccn1", "activity change, negative = inhibition": "inactive: 4.67%"}, {"smiles": "C=C(C)Cn1c(-c2ccncc2)n[nH]c1=S", "Potency": "inconclusive: 44.7 µM [inhibitor, partial curve, poor fit]"}, {"smiles": "C#CCOc1ccc2ccccc2c1C=O", "Potency": "inconclusive: 70.8 µM [inhibitor, single point]"}, {"smiles": "O=C(C[C@@H]1C/C=C/CC[C@@H](Cc2ccc(F)cc2)C(=O)OC[C@H](Cc2ccccc2)NC1=O)N[C@H](CO)Cc1ccccc1", "Potency": "inconclusive: 56.2 µM [inhibitor, partial curve, poor fit]"}, {"smiles": "CNC(=O)c1ccc(Cn2cc(-c3nccn3C)nn2)o1", "activity change, negative = inhibition": "inactive: 21.4%"}, {"smiles": "COCCNC(=S)N/N=C(\\C)c1ccc(C)c([N+](=O)[O-])c1", "Potency": "inconclusive: 39.8 µM [inhibitor, partial curve, poor fit]"}, {"smiles": "CCN1C(=O)[C@H]2[C@H]3CN=C(SCc4ccc(C)cc4)N3[C@@](Cc3ccccc3)(C(=O)OC)[C@H]2C1=O", "Potency": "inconclusive: 44.7 µM [inhibitor, partial curve, poor fit]"}, {"smiles": "Oc1ccc(CSc2nc3ccccc3s2)c2cccnc12", "Potency": "inconclusive: 20 µM [inhibitor, partial curve, poor fit]"}, {"smiles": "Cc1ccc(C2CCCN2Cc2nc(-c3ccco3)no2)cc1", "note": "(stereo unspecified)", "Potency": "inconclusive: 50.1 µM [inhibitor, partial curve, poor fit]"}, {"smiles": "CC(C)/C=C(/C(=O)c1ccc(Cl)cc1Cl)n1cncn1", "Potency": "inconclusive: 44.7 µM [inhibitor, partial curve, poor fit]"}, {"smiles": "COc1ccc2nc(C#N)ccc2c1", "activity change, negative = inhibition": "inactive: 24.7%"}, {"smiles": "CCn1c(=N)c(S(=O)(=O)c2ccc(C)cc2)cc2c(=O)n3ccccc3nc21", "Potency": "inconclusive: 50.1 µM [inhibitor, partial curve, poor fit]"}, {"smiles": "CN1c2cc(C(=O)Nc3ccc4c(c3)CCC4)ccc2C(=O)N2CCCCC21", "note": "(stereo unspecified)", "Potency": "inconclusive: 20 µM [inhibitor, partial curve, poor fit]"}, {"smiles": "CCn1nc(C(=O)N2CCc3ccccc3C2)c2ccccc2c1=O", "Potency": "inconclusive: 35.5 µM [inhibitor, single point]"}, {"smiles": "O=C(CCSc1nc(-c2ccco2)cc(C(F)(F)F)n1)N1CCN(c2ccccc2)CC1", "Potency": "inconclusive: 112 µM [inhibitor, single point]"}, {"smiles": "CCC(CO)Nc1ncnc2c1CN(C1CCCNC1)C(=O)CN2C", "note": "(stereo unspecified)", "Potency": "inconclusive: 2.51 µM [inhibitor, full curve]"}, {"smiles": "CCCCN(CCCC)CC(O)Cn1cc(/C=C/C(=O)c2ccccc2)c2ccccc21", "note": "(stereo unspecified)", "Potency": "active: 44.7 µM"}, {"smiles": "N#Cc1nc(-c2ccccc2Cl)oc1NCc1ccc(Cl)cc1", "Potency": "inconclusive: 4.47 µM [inhibitor, full curve, poor fit]"}, {"smiles": "COc1ccc(CNCC2COc3ccccc3O2)cc1", "note": "(stereo unspecified)", "Potency": "inconclusive: 0.355 µM [inhibitor, full curve, poor fit]"}, {"smiles": "Cc1ccc(C(=O)N(Cc2nc(-c3ccc(C)cc3)no2)C(C)C)cc1", "Potency": "inconclusive: 44.7 µM [inhibitor, single point]"}, {"smiles": "O=C(c1cc(F)ccc1F)C1CCN(CCc2ccncc2)CC1", "Potency": "inconclusive: 50.1 µM [inhibitor, partial curve, poor fit]"}, {"smiles": "COc1cccc(Cn2c(C)c(CNCCc3c[nH]c4ccccc34)c(C(=O)O)c2C)c1", "Potency": "inconclusive: 56.2 µM [inhibitor, partial curve, poor fit]"}, {"smiles": "COc1ccc(NC(=O)c2cc(=O)[nH]c3ccccc23)c(OC)c1", "activity change, negative = inhibition": "inactive: 3.84%"}, {"smiles": "CCC1(CC)Cc2ccccc2-c2nc(NCCO)[nH]c(=O)c21", "Potency": "inconclusive: 141 µM [inhibitor, single point]"}, {"smiles": "CC(=O)c1c(N2CCOCC2)[nH]c(-c2ccccc2)nc1=S", "Potency": "inconclusive: 56.2 µM [inhibitor, partial curve]"}, {"smiles": "CC(=O)Nc1cccc(NC(=O)CSc2nc3c(c(=O)n(C)c(=O)n3C)n2C)c1", "Potency": "inconclusive: 112 µM [inhibitor, partial curve, poor fit]"}, {"smiles": "COc1cc(/C=N/NC(=O)COc2ccc([N+](=O)[O-])cc2)ccc1OCC(=O)N1CCOCC1", "activity change, negative = inhibition": "inactive: -3.38%"}, {"smiles": "CC(=O)NCCNc1nc2cc(-c3ccccc3)sc2c(=O)n1C", "activity change, negative = inhibition": "inactive: -4.92%"}, {"smiles": "CCn1cc(C(=O)NCc2ccccc2)c(=O)c2cc(F)c(N3CCN(C(=O)c4ccco4)CC3)cc21", "Potency": "inconclusive: 15.8 µM [inhibitor, full curve, poor fit]"}, {"smiles": "COc1cc(/C=C2/SC(=S)N(CCC(=O)Nc3cccnc3)C2=O)cc(OC)c1OC", "Potency": "inconclusive: 141 µM [inhibitor, partial curve, poor fit]"}, {"smiles": "O=C(O)c1cccc(NC(=S)NC(=O)c2ccc3ccccc3c2)c1", "Potency": "inconclusive: 35.5 µM [inhibitor, partial curve, poor fit]"}, {"smiles": "CCCCC(CC)CNC(=O)CCCn1c(=O)[nH]c2ccsc2c1=O", "note": "(stereo unspecified)", "activity change, negative = inhibition": "inactive: -22.2%"}, {"smiles": "CCCc1nc(-c2cc3ccc(C)cc3[nH]c2=O)no1", "activity change, negative = inhibition": "inactive: 0%"}, {"smiles": "Cc1ccc(NC(=O)CCN2C(=O)C3CCCCC3C2=O)cc1[N+](=O)[O-]", "note": "(stereo unspecified)", "activity change, negative = inhibition": "inactive: 12.2%"}, {"smiles": "Fc1ccc(NC(=S)NC2CCCCCC2)cc1", "Potency": "inconclusive: 35.5 µM [inhibitor, partial curve, poor fit]"}, {"smiles": "COc1ccc(CCNC(=O)CCc2c(C)noc2C)cc1OC", "activity change, negative = inhibition": "inactive: -7.14%"}, {"smiles": "COCC(=O)N1CCCN(c2nc3ncccc3o2)CC1", "Potency": "inconclusive: 70.8 µM [inhibitor, partial curve]"}, {"smiles": "COC(=O)c1cc(NC(=O)CN(C)C2CCS(=O)(=O)C2)cc(C(=O)OC)c1", "note": "(stereo unspecified)", "Potency": "inconclusive: 0.794 µM [inhibitor, full curve, poor fit]"}]}]}
